Experimental data: the supplement of paper PMC6411743
± gives the standard deviation of the averaged measurements. This is a selection; strong and weak results do not stand in their true shares. Most values lie at the level of the controls, where differences are scatter.

Chains of the proteins cited; added tags and fusions are not shown. Lines headed by an entry give the natural chain unless they say otherwise; changes in a name come on top.
UniProt P23284: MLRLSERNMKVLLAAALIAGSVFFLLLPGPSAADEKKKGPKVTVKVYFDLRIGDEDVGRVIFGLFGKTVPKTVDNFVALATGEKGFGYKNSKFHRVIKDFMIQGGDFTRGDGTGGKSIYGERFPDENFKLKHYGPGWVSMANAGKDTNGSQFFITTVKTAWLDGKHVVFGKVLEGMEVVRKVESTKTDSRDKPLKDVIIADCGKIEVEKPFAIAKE
UniProt P25685, whole entry: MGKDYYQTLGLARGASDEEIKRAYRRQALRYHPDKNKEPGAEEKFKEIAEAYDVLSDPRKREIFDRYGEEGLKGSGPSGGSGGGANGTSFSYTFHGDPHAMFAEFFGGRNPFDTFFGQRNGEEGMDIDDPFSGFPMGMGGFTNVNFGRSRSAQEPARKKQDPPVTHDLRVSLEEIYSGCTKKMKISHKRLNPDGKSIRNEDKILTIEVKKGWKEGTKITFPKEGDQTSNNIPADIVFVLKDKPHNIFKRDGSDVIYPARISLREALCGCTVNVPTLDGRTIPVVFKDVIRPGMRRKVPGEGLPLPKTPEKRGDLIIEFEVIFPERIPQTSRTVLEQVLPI
UniProt P21291: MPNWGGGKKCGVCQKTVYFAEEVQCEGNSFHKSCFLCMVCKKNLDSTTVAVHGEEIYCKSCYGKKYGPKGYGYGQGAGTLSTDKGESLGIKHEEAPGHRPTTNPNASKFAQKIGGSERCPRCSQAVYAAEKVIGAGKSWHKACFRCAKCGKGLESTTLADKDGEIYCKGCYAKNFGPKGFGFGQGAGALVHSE
UniProt P19440: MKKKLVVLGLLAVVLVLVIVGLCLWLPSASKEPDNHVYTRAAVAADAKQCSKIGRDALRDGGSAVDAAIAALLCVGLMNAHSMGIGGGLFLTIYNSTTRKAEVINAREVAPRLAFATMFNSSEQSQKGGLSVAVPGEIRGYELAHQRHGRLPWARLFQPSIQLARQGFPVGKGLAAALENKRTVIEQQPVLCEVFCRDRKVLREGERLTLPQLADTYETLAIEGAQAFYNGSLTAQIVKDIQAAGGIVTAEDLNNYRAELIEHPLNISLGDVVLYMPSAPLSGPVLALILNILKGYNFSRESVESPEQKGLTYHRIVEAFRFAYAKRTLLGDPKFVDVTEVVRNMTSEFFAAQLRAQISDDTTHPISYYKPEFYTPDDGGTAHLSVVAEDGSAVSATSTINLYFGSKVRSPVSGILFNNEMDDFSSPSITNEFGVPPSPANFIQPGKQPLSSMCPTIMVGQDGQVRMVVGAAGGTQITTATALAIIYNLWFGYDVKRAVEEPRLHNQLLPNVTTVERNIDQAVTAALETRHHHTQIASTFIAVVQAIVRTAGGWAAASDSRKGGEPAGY
UniProt P25205: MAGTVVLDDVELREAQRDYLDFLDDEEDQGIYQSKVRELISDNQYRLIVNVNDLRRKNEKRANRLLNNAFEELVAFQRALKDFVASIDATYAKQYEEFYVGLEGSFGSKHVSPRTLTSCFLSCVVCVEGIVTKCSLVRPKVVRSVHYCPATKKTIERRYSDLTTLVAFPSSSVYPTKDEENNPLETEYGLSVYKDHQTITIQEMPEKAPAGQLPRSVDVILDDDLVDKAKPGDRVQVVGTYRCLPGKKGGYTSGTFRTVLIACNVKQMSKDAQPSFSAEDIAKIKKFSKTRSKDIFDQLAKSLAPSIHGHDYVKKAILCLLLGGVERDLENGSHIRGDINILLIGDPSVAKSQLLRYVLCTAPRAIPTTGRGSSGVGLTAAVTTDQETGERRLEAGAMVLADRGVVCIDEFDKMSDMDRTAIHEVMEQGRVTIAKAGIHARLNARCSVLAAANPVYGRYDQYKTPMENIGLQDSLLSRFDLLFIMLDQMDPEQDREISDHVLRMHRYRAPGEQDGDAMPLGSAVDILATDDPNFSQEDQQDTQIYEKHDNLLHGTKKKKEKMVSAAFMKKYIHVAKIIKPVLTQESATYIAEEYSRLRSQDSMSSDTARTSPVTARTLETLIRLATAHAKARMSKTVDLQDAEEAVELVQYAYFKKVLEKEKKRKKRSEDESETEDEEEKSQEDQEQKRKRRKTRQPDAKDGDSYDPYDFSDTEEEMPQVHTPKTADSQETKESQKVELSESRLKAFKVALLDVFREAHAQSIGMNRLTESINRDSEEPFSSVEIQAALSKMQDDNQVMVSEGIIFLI
UniProt P26885: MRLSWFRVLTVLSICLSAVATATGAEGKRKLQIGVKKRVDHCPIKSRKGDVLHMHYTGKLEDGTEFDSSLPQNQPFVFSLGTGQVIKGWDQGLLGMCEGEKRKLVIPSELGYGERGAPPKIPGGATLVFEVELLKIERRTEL
UniProt P31150: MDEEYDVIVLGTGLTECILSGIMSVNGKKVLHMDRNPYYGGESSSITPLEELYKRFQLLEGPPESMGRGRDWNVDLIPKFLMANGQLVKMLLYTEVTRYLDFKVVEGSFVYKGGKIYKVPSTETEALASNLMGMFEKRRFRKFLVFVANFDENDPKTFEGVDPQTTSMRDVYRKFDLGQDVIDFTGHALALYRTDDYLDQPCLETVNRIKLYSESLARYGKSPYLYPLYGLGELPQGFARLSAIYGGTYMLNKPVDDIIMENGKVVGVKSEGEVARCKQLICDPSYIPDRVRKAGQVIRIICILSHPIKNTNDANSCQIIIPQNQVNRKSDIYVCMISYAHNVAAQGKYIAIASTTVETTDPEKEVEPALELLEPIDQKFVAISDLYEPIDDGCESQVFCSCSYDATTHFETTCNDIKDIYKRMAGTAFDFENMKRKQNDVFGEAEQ
UniProt P29353: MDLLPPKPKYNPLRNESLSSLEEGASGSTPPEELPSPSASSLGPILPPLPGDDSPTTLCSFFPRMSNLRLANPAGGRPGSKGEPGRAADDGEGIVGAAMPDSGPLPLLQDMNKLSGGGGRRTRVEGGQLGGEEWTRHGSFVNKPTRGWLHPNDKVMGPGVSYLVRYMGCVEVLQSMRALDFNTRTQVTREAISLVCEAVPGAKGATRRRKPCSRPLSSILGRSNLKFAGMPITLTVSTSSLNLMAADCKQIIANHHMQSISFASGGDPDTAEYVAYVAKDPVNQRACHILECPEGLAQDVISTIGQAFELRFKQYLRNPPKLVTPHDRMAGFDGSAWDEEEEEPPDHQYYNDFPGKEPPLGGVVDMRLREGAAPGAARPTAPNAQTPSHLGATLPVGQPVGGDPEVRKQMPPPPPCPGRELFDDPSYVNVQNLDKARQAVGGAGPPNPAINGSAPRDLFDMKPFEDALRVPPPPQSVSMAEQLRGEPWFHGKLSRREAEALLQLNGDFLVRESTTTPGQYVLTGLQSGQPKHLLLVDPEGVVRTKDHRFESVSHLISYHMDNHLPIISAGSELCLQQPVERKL
UniProt P22830: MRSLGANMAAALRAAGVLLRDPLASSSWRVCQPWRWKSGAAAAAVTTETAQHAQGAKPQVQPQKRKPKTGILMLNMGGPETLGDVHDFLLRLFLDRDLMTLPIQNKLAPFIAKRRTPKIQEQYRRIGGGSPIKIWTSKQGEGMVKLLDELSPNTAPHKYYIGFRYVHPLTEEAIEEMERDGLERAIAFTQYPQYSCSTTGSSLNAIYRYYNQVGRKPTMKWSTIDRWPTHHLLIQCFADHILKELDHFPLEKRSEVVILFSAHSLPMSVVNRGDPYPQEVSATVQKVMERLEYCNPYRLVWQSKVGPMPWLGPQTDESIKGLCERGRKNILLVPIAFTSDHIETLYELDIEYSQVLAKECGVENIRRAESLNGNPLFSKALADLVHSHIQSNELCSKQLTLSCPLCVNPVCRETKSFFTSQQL
UniProt P35221: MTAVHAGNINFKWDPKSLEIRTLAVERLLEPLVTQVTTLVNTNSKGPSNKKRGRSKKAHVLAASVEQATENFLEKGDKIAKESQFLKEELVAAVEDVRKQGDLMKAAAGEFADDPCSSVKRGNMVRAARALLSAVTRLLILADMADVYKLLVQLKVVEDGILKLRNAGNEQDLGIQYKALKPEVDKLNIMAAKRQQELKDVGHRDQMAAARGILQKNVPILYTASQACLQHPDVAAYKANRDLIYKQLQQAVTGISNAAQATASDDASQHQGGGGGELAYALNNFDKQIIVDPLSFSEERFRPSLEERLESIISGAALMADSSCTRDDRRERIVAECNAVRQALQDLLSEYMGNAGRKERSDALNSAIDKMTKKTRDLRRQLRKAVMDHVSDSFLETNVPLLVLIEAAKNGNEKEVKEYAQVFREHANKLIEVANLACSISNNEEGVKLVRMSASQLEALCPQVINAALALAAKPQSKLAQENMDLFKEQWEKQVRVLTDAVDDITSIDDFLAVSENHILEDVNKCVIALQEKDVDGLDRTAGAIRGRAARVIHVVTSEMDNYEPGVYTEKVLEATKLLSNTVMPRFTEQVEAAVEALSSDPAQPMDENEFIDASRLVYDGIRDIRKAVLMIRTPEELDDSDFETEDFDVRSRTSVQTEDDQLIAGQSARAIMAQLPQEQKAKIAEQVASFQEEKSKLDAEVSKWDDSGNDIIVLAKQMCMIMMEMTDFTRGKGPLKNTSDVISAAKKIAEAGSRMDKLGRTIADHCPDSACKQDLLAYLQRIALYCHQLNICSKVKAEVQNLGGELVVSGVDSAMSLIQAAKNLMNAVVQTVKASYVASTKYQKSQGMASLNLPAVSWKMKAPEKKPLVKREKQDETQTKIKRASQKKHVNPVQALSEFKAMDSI
UniProt P27348: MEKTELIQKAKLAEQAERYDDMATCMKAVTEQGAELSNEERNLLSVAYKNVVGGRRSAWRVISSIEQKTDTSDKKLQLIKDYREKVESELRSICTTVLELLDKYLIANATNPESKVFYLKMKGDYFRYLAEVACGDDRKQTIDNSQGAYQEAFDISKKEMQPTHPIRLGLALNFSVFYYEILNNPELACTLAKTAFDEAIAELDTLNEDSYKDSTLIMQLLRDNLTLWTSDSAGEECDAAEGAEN
UniProt P21912: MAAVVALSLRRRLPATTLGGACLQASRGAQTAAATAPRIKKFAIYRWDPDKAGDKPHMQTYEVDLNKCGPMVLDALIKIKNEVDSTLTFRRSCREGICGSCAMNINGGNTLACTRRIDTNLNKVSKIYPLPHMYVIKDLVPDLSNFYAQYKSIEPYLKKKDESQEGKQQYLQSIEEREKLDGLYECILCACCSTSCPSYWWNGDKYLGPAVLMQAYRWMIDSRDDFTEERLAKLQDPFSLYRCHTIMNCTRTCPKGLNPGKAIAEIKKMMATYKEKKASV
UniProt P29084: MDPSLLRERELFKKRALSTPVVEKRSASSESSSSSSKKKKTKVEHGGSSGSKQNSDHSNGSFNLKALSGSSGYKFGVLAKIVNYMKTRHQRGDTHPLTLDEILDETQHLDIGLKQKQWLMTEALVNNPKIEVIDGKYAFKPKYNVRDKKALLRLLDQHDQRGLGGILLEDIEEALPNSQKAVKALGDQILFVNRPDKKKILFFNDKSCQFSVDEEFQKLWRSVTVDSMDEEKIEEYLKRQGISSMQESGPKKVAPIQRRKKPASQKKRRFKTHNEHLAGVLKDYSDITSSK
UniProt P28288: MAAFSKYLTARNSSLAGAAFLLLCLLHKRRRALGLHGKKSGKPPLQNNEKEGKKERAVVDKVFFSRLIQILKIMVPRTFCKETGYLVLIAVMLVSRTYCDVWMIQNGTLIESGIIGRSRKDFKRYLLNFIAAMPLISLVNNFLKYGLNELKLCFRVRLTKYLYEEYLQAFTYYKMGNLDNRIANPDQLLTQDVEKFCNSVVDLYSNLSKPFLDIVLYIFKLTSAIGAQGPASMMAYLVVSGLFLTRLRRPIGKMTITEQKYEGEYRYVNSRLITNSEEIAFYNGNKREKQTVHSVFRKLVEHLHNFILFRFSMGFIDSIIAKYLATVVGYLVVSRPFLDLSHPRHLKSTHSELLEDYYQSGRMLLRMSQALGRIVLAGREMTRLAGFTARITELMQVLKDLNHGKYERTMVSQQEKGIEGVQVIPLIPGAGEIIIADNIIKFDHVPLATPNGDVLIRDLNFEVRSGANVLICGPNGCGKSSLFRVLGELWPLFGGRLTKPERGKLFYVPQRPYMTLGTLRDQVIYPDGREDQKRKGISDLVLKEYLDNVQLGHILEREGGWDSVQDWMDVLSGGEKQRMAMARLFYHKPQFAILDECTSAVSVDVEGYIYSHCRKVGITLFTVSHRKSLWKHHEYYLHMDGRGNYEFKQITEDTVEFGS
UniProt P20963, whole entry: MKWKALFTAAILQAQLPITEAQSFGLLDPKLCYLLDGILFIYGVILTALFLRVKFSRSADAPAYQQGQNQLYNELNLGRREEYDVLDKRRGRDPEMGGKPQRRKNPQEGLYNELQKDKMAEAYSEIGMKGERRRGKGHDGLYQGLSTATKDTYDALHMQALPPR
UniProt P35219: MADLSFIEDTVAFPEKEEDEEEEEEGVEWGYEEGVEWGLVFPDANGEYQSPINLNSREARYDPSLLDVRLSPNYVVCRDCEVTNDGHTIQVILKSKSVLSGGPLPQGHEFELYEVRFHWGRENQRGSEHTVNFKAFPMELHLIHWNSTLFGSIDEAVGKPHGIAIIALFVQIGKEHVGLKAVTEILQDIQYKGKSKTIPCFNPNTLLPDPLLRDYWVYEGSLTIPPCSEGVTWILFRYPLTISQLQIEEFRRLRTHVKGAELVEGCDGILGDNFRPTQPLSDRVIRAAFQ

Compound: Nc1ncnc2c1ncn2[C@@H]1O[C@H](COP(=O)(O)OP(=O)(O)OP(=O)(O)O)[C@@H](O)[C@H]1O [adenosine triphosphate]
Assay: NP40-soluble protein abundance relative to vehicle (solubility fold change) (ratio); higher = more soluble protein in presence of ATP
Procedure, shortened: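 Data come from three independent experiments in which Dounce-homogenised Jurkat crude lysate was treated at eight concentrations from 0.1 to 10 mM. Treatment ran 10 min at room temperature and then 3 min at 37 °C, after which 0.8% NP40 and benzonase were added for 60 min at 4 °C before ultracentrifugation. The supernatant underwent TMT labelling and LC-MS/MS, and vsn-normalised intensities were expressed as fold change against the detergent-processed vehicle in each replicate.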

Target	NP40-soluble protein abundance (concentration: 0.1mM)	NP40-soluble protein abundance (concentration: 0.5mM)
MCM7 (UniProt P33993)	1 ± 0.039	1 ± 0.033
SPR (UniProt P35270)	0.971 ± 0.045	0.915 ± 0.037
UniProt P21333-2|P21333 and related entries	0.992 ± 0.045	1.02 ± 0.072
EEF1B2 (UniProt P24534)	0.78 ± 0.2	0.762 ± 0.21
UniProt P34897 and related entries	1.01 ± 0.037	0.999 ± 0.022
PPIB (UniProt P23284)	0.966 ± 0.015	1.02 ± 0.04
WARS (UniProt P23381)	1.02 ± 0.078	1.04 ± 0.067
UniProt P17096 and related entries	0.941 ± 0.17	1.01 ± 0.46
UniProt P25445 and related entries	0.922 ± 0.059	0.891 ± 0.038
UniProt P32189 and related entries	1.09 ± 0.044	1.08 ± 0.039
UniProt P22694-2|P22694-3|P22694	1.04 ± 0.035	1.1 ± 0.06
RFX1 (UniProt P22670)	1.02 ± 0.03	0.9806 ± 0.008
DNAJB1 (UniProt P25685)	1.03 ± 0.077	1.04 ± 0.074
UniProt P31948 and related entries	0.996 ± 0.14	0.971 ± 0.12
UniProt P30044 and related entries	0.999 ± 0.03	0.959 ± 0.069
UniProt P30154 and related entries	0.974 ± 0.011	0.949 ± 0.014
SDHA (UniProt P31040)	1.03 ± 0.064	1.05 ± 0.059
UniProt P26010 and related entries	0.889 ± 0.15	0.927 ± 0.13
UniProt P25054 and related entries	0.926 ± 0.071	0.989 ± 0.033
MGAT1 (UniProt P26572)	1.02 ± 0.025	1.104 ± 0.0015
RPA1 (UniProt P27694)	1.06 ± 0.093	1.05 ± 0.048
UniProt P29218 and related entries	1.03 ± 0.035	1.02 ± 0.026
UniProt P27701 and related entries	0.89 ± 0.049	0.8 ± 0.2
RAB3A (UniProt P20336)	0.9773 ± 0.0078	0.951 ± 0.091

Full records, quoted from the list:
UniProt P27701 and related entries as listed: NP40-soluble protein abundance (concentration: 0.1mM): 0.89 ± 0.049; NP40-soluble protein abundance (concentration: 0.5mM): 0.8 ± 0.2
UniProt P22694-2|P22694-3|P22694 as listed: NP40-soluble protein abundance (concentration: 0.1mM): 1.04 ± 0.035; NP40-soluble protein abundance (concentration: 0.5mM): 1.1 ± 0.06
UniProt P31948 and related entries as listed: NP40-soluble protein abundance (concentration: 0.1mM): 0.996 ± 0.14; NP40-soluble protein abundance (concentration: 0.5mM): 0.971 ± 0.12
SPR (UniProt P35270) as listed: NP40-soluble protein abundance (concentration: 0.1mM): 0.971 ± 0.045; NP40-soluble protein abundance (concentration: 0.5mM): 0.915 ± 0.037

(cont.)

Target	NP40-soluble protein abundance (concentration: 0.1mM)	NP40-soluble protein abundance (concentration: 0.5mM)
CSRP1 (UniProt P21291)	1.01 ± 0.016	1.02 ± 0.016
GGT1 (UniProt P19440)	0.9 ± 0.08	0.886 ± 0.2
MCM3 (UniProt P25205)	1 ± 0.039	0.985 ± 0.04
CKS2 (UniProt P33552)	1.03 ± 0.036	1.02 ± 0.025
FKBP2 (UniProt P26885)	0.927 ± 0.018	0.92 ± 0.09
UniProt P20810-10|P20810-6	0.954 ± 0.023	0.939 ± 0.017
ERCC2 (UniProt P18074)	1.04 ± 0.039	1.02 ± 0.047
SLC9A1 (UniProt P19634)	0.98 ± 0.066	0.962 ± 0.021
UniProt P27361	1 ± 0.034	1.03 ± 0.031
UniProt P35580 and related entries	0.956 ± 0.03	1.09 ± 0.073
TFE3 (UniProt P19532)	0.966 ± 0.099	0.982 ± 0.12
UniProt P30049	0.949 ± 0.078	0.902 ± 0.052
UniProt P25788 and related entries	0.941 ± 0.065	0.948 ± 0.043
UniProt P22001	0.901 ± 0.067	0.912 ± 0.092
UniProt P32969 and related entries	0.928 ± 0.11	0.919 ± 0.17
GCHFR (UniProt P30047)	0.909 ± 0.33	0.903 ± 0.14
UniProt P23771 and related entries	0.946 ± 0.015	0.884 ± 0.018
UniProt P23396 and related entries	0.899 ± 0.086	0.857 ± 0.1
PRKAR1B (UniProt P31321)	1.05 ± 0.046	1.01 ± 0.096
UniProt P27824 and related entries	0.967 ± 0.05	1.02 ± 0.049
GDI1 (UniProt P31150)	1.05 ± 0.088	1.06 ± 0.064
PIK3R1 (UniProt P27986)	1.02 ± 0.04	1.03 ± 0.054
UniProt P28907	0.907 ± 0.069	0.895 ± 0.089
UniProt P29353 and related entries	0.982 ± 0.029	1.03 ± 0.019

Target	NP40-soluble protein abundance (concentration: 0.1mM)	NP40-soluble protein abundance (concentration: 0.5mM)
UniProt P22830 and related entries	1.07 ± 0.063	1.05 ± 0.081
UniProt P27635 and related entries	0.951 ± 0.036	0.932 ± 0.08
PGAM1 (UniProt P18669)	0.933 ± 0.13	1.03 ± 0.069
UniProt P26038 and related entries	1.04 ± 0.032	1.01 ± 0.14
UniProt P19367 and related entries	1.04 ± 0.059	1.03 ± 0.034
UniProt P17010 and related entries	1.02 ± 0.13	0.936 ± 0.023
UniProt P19838 and related entries	1.07 ± 0.068	1.04 ± 0.06
TMEM11 (UniProt P17152)	1.05 ± 0.14	0.96 ± 0.15
IGFBP2 (UniProt P18065)	0.981 ± 0.032	0.973 ± 0.024
PSMA4 (UniProt P25789)	0.808 ± 0.23	1.09 ± 0.19
UniProt P29401 and related entries	1.03 ± 0.057	1.05 ± 0.059
YY1 (UniProt P25490)	1.02 ± 0.028	1.02 ± 0.035
M6PR (UniProt P20645)	0.982 ± 0.014	0.911 ± 0.029
UniProt P21964 and related entries	1 ± 0.033	1.03 ± 0.047
VDAC1 (UniProt P21796)	0.977 ± 0.043	1.01 ± 0.02
AHCY (UniProt P23526)	1.02 ± 0.064	1.03 ± 0.068
UniProt P19784	1.05 ± 0.072	1.01 ± 0.049
PSMB9 (UniProt P28065)	0.99 ± 0.024	0.963 ± 0.055
UniProt P17612	1 ± 0.076	1.05 ± 0.032
UniProt P35221 and related entries	0.974 ± 0.027	0.984 ± 0.018
UniProt P29590 and related entries	0.96 ± 0.024	0.936 ± 0.037
CPT2 (UniProt P23786)	1.05 ± 0.089	1.05 ± 0.07
YWHAQ (UniProt P27348)	0.907 ± 0.09	0.865 ± 0.14
SDHB (UniProt P21912)	0.99 ± 0.028	0.97 ± 0.018

Target	NP40-soluble protein abundance (concentration: 0.1mM)	NP40-soluble protein abundance (concentration: 0.5mM)
UniProt P35658 and related entries	0.9977 ± 0.0083	0.983 ± 0.028
TRIM21 (UniProt P19474)	1.04 ± 0.057	1.03 ± 0.053
UniProt P29350 and related entries	1.05 ± 0.076	1.06 ± 0.07
UniProt P20023 and related entries	0.982 ± 0.073	0.956 ± 0.062
GM2A (UniProt P17900)	0.981 ± 0.021	0.937 ± 0.083
ARF4 (UniProt P18085)	1.07 ± 0.17	1.08 ± 0.082
UniProt P35611 and related entries	0.984 ± 0.019	0.988 ± 0.027
UniProt P29374 and related entries	0.972 ± 0.058	1.02 ± 0.071
UniProt P23469 and related entries	1.17 ± 0.056	1.17 ± 0.11
EEF1G (UniProt P26641)	0.991 ± 0.041	1.01 ± 0.046
UniProt P25325 and related entries	1.03 ± 0.079	1.09 ± 0.096
GTF2E2 (UniProt P29084)	0.96 ± 0.024	0.981 ± 0.041
GALNS (UniProt P34059)	0.952 ± 0.054	0.985 ± 0.041
TUBG1 (UniProt P23258)	1.05 ± 0.09	1.08 ± 0.076
TAL1 (UniProt P17542)	0.922 ± 0.17	0.852 ± 0.18
DDX6 (UniProt P26196)	0.998 ± 0.051	1.02 ± 0.017
UniProt P34896 and related entries	1.04 ± 0.046	1.02 ± 0.039
UniProt P18858 and related entries	1 ± 0.028	1.02 ± 0.04
UniProt P29375 and related entries	1.1 ± 0.19	1.09 ± 0.042
UniProt P18615 and related entries	1.001 ± 0.0076	1.04 ± 0.085
UniProt P18754 and related entries	1.02 ± 0.026	1.04 ± 0.035
PPIF (UniProt P30405)	0.989 ± 0.013	0.994 ± 0.032
GART (UniProt P22102)	1 ± 0.046	1 ± 0.016
UniProt P17980 and related entries	0.987 ± 0.026	0.965 ± 0.041

Target	NP40-soluble protein abundance (concentration: 0.1mM)	NP40-soluble protein abundance (concentration: 0.5mM)
YWHAB (UniProt P31946)	0.9 ± 0.08	0.912 ± 0.092
UniProt P33981 and related entries	1.024 ± 0.0094	1.07 ± 0.029
AKT1 (UniProt P31749)	1.05 ± 0.1	1.05 ± 0.094
CHML (UniProt P26374)	0.9922 ± 0.0069	0.982 ± 0.048
UniProt P20340 and related entries	1.09 ± 0.11	1.08 ± 0.071
UniProt P26358 and related entries	1.03 ± 0.039	1.03 ± 0.051
ABCD3 (UniProt P28288)	1.06 ± 0.08	1.07 ± 0.08
UniProt P20936 and related entries	1.02 ± 0.031	0.997 ± 0.048
PHB (UniProt P35232)	0.97 ± 0.042	0.981 ± 0.041
RPL7 (UniProt P18124)	0.983 ± 0.12	0.948 ± 0.11
UniProt P16591 and related entries	1.04 ± 0.06	1.07 ± 0.065
RPL22 (UniProt P35268)	1.02 ± 0.023	0.99 ± 0.11
RFC2 (UniProt P35250)	1.11 ± 0.032	1.2 ± 0.049
UniProt P20963 and related entries	0.93 ± 0.077	0.934 ± 0.15
CA8 (UniProt P35219)	1.08 ± 0.13	1.09 ± 0.097
LMNB1 (UniProt P20700)	0.934 ± 0.04	0.98 ± 0.13
UniProt P30520	1.02 ± 0.056	1.01 ± 0.053
GTF2E1 (UniProt P29083)	1.01 ± 0.025	1.04 ± 0.063
CFL1 (UniProt P23528)	0.983 ± 0.037	0.94 ± 0.055
UniProt P17544-2|P17544-4|P17544-6	1.12 ± 0.12	0.937 ± 0.038
NMT1 (UniProt P30419)	1.01 ± 0.025	1.07 ± 0.059
ATP2A2 (UniProt P16615)	1.06 ± 0.052	1.06 ± 0.044
PSMB1 (UniProt P20618)	0.836 ± 0.31	0.99 ± 0.057
UniProt P18206 and related entries	0.963 ± 0.019	0.982 ± 0.028
